Measurements from US20190111149A1, “ANTI-EGFR ANTIBODY DRUG CONJUGATE” (priority 2016, published 2019).
Some compounds share one wording; it may come from a single statement.

Test system: Cetuximab I83E
Assay: UV photo-conjugation of meditope peptides to cetuximab I83E, hydrophobic interaction chromatography
Settings: HIC, FIG. 1

Substance | covalent bonding to cetuximab after UV irradiation
Peptide 13: MMAD conjugated photoactivatable long cQFD benzolyl-Phe 10 | did not efficiently covalent bond
Peptide 11: MMAD conjugated photoactivatable long cQFD azido-Phe 10 | did not efficiently covalent bond
